For part of these data: Protein sequences can lack the tags named with them. For part of these data: For at least one entry, the source does not settle the construct or the ends of the probe. For part of these data: A negative result means that nothing was seen under these conditions.
Assays:
[1] = tested on: M2.Eco31I deletion of first 7 amino acids (Escherichia coli); test: activity assay; details: methylation blocks BsaI cleavage; 160 uM SAM, 37 C; purified recombinant protein; protein details: C-terminal His (pET-30b)
M2.BsaI = target: T1, M2.BsaI (UniProt Q6SPF5); test: activity assay; details: methylation blocks BsaI cleavage; 160 uM SAM, 37 C; purified recombinant protein; protein details: C-terminal His (pET-30b)
T1 sequence (looked up, limits assumed): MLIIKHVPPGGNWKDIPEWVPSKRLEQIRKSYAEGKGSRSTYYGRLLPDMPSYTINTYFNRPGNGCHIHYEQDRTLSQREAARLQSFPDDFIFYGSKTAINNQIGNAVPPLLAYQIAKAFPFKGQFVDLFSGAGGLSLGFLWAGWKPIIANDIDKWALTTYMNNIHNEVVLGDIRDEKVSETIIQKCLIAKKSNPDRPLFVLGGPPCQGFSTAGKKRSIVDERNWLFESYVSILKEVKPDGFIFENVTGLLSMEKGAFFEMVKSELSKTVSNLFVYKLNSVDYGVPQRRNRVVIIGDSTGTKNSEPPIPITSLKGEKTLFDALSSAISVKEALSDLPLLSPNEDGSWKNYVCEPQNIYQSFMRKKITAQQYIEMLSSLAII

[2] = tested on: M.Csp205I/S.Csp205I type I methylase; test: activity in cells; details: standard BsaI site not protected; protein in cells; protein details: co-expressed in E. coli DH10B; only the site is given

## GGTCTC (double strand) [standard BsaI site]
[1]
  activity on this sequence: active
M2.BsaI
  activity on this sequence: active
[2]
  activity on this sequence: not active

— patent US20220380784
